Test results reported in paper PMC12337293.
No constants are given. Whether binding was seen depends on the method and setting. Binding seen in cells or lysates may run through a third protein. Some entries that bind do so weakly or less than the wild type.

Protein sequences, listed by entry. Tags and fused reporters are not part of them. Lines headed by an entry give the natural chain unless they say otherwise; changes in a name come on top. Chains listed by the source or under a name are the forms on record and can include a tag or linker.
BMAL1 p.(Glu501Lys) (O00327-2, form named): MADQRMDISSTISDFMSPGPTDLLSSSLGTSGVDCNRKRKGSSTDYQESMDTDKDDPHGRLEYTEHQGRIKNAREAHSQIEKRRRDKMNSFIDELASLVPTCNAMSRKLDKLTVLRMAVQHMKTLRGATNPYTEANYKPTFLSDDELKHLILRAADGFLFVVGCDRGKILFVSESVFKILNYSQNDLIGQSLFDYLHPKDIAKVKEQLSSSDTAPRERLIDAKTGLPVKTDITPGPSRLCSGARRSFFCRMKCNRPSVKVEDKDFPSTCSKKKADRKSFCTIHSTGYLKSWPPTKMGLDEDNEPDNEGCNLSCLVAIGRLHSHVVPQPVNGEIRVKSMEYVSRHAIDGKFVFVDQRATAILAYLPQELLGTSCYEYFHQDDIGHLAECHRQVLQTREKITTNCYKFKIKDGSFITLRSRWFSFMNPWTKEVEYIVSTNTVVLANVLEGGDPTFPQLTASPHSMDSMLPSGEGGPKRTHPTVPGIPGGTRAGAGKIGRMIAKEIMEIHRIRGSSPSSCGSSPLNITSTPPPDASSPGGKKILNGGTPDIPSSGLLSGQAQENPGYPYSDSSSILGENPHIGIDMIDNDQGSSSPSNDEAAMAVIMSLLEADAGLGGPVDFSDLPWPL
BMAL1 p.(Gly68Arg) (O00327-2, form named): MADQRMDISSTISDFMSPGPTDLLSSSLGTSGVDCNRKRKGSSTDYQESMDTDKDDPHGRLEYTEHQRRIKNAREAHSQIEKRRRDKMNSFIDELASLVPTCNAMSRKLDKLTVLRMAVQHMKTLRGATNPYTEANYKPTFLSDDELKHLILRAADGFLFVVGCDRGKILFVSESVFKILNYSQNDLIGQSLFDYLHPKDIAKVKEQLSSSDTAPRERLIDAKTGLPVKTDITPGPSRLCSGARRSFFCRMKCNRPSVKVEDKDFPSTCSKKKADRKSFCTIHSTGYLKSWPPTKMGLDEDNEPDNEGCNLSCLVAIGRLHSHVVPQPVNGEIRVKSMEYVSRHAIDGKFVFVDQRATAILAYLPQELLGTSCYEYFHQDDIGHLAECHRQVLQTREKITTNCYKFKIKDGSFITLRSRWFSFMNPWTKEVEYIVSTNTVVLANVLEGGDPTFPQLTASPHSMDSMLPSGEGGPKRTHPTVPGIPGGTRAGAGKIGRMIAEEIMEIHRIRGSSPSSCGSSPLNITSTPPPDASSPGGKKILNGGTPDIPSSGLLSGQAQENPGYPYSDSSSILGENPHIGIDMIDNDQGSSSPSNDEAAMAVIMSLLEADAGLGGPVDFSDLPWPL
BMAL1 p.(Ile201Thr) (O00327-2, form named): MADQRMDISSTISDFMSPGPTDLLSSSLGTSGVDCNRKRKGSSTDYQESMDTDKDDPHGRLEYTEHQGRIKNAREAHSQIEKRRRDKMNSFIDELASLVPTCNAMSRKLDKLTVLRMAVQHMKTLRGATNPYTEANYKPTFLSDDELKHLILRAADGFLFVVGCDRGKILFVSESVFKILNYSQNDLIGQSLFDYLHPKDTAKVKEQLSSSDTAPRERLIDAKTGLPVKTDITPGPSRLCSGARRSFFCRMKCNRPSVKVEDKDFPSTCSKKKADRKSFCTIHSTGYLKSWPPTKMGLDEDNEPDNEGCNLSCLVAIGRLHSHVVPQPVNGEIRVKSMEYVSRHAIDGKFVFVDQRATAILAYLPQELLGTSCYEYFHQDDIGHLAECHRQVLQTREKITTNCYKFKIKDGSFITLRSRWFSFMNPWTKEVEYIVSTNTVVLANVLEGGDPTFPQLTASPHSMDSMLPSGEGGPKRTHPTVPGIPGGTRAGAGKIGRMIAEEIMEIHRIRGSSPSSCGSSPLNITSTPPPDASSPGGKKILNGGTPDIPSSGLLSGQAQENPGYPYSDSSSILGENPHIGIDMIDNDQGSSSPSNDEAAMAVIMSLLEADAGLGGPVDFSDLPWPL

Target: T1, CLOCK (human (endogenous in U2OS)) (UniProt O15516)
T1 sequence: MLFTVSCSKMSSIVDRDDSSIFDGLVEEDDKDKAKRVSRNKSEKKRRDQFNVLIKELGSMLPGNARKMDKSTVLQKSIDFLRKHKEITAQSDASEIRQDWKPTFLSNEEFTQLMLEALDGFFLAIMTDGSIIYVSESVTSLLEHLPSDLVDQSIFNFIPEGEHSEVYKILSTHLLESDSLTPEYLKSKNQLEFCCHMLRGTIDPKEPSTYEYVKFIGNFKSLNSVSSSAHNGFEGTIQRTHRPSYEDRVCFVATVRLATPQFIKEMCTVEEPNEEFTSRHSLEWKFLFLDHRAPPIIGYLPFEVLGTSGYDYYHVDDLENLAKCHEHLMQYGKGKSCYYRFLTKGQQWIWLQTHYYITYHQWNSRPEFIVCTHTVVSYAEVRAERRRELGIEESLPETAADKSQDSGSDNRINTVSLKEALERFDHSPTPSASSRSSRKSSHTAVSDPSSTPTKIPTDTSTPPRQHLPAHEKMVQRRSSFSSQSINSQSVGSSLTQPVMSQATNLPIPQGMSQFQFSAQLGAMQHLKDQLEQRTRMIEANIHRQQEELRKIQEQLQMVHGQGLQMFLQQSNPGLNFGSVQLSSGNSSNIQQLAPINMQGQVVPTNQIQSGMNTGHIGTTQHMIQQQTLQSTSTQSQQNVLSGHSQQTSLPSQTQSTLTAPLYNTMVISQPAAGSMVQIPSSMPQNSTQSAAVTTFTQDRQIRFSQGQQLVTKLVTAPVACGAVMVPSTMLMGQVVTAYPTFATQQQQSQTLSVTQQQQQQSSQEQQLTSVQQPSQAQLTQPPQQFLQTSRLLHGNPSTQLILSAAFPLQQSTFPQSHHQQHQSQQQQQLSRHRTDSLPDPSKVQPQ
Experiment: co-IP; 1 µg rabbit anti-CLK IgG and Protein A DynaBeads with 500 µg total protein of U2OS lysate, 4 h at 4 °C; lysis buffer 10 mM Tris-Cl pH7.5, 100 mM NaCl, 5 mM EDTA, 1% Triton X-100, 0.05% SDS; 6 washes (150 mM NaCl, 0.4% Triton X-100, 0.05% SDS); immunoblot with mouse anti-BMAL1

| Substance | binding |
| --- | --- |
| BMAL1 (wild type) (from UniProt O00327-2 1-626) | binds |
| BMAL1 p.(Glu501Lys) (from UniProt O00327-2 1-626) | binds |
| BMAL1 p.(Gly68Arg) (from UniProt O00327-2 1-626) | binds |
| BMAL1 p.(Ile201Thr) (from UniProt O00327-2 1-626) | binds |
